Experimental data published in paper PMC9170289.
Read-outs that look alike come from different tables or passages of the source. No constants are given. Whether binding was seen depends on the method and setting. Some results given as binding are weak or reduced against the parent protein; the word gives no strength.

Sequences of proteins named here, by UniProt entry; tags and fusion partners are left off.
UniProt P22147: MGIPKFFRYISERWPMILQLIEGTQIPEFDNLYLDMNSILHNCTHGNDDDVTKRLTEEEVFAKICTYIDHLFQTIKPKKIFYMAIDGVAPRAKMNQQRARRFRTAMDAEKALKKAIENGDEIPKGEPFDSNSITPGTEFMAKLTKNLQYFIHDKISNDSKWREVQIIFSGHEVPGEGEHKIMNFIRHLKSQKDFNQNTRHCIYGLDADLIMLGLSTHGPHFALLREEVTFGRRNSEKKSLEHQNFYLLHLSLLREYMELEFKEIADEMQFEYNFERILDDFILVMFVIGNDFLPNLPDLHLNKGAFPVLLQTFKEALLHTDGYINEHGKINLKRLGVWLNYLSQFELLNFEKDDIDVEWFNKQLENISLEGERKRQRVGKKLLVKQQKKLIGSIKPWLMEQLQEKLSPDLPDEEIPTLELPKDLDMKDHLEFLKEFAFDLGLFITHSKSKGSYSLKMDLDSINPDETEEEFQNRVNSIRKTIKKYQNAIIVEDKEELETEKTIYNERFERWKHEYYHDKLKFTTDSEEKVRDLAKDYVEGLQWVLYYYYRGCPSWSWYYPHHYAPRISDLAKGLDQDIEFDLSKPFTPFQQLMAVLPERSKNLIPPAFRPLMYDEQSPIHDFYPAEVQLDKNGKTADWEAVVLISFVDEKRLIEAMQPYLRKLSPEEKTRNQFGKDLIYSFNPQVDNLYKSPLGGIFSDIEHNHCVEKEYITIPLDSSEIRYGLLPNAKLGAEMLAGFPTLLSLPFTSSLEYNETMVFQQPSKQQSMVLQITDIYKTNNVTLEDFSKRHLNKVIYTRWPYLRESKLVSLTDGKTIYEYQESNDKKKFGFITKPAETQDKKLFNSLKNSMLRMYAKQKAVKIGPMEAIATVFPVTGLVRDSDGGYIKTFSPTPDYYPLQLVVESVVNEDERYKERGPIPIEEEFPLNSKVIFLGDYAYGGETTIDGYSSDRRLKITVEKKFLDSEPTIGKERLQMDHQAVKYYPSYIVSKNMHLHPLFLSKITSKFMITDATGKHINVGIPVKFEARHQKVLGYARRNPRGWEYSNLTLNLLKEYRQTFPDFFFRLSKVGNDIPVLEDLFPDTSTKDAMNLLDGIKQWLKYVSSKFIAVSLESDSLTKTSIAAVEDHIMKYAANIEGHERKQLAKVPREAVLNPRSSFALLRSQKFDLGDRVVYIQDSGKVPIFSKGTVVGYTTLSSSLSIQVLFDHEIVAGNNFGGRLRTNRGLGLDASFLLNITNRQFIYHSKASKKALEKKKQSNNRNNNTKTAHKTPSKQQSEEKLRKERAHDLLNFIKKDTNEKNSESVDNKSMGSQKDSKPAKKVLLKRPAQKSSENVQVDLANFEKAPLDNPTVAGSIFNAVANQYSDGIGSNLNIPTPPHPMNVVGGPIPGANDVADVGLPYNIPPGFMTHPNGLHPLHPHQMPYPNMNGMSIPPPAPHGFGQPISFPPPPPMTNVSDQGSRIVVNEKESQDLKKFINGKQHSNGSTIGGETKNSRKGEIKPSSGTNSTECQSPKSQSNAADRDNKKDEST

T1: Dcp2, wild-type full length (S. cerevisiae) (UniProt P53550)
T1 sequence: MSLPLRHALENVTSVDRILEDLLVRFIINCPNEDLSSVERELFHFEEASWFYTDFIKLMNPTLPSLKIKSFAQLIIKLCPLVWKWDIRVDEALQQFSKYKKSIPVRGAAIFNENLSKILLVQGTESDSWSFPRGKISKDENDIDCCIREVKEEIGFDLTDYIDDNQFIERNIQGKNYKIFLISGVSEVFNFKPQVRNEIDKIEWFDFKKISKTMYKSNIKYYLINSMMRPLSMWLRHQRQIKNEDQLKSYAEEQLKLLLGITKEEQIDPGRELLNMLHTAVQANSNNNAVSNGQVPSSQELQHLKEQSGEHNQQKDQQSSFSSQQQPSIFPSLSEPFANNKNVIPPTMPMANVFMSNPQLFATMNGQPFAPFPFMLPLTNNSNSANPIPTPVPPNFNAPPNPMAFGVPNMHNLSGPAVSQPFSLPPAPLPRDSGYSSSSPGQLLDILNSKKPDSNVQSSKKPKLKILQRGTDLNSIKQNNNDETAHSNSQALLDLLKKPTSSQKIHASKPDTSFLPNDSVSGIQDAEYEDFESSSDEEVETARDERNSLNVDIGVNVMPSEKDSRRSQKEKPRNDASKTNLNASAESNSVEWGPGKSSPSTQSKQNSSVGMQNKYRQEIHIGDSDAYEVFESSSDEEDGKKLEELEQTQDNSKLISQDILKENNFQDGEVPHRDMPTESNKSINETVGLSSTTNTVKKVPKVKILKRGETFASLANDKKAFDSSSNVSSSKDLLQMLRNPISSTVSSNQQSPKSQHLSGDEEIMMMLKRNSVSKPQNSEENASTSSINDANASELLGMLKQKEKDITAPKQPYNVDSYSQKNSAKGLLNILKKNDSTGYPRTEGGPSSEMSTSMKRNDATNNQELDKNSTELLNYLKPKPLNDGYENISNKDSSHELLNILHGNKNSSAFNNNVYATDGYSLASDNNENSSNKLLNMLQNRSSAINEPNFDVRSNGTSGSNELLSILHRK

T2: Dcp2-ND244 (726-amino acid C-terminal fragment) (S. cerevisiae) (UniProt P53550)
T2 sequence: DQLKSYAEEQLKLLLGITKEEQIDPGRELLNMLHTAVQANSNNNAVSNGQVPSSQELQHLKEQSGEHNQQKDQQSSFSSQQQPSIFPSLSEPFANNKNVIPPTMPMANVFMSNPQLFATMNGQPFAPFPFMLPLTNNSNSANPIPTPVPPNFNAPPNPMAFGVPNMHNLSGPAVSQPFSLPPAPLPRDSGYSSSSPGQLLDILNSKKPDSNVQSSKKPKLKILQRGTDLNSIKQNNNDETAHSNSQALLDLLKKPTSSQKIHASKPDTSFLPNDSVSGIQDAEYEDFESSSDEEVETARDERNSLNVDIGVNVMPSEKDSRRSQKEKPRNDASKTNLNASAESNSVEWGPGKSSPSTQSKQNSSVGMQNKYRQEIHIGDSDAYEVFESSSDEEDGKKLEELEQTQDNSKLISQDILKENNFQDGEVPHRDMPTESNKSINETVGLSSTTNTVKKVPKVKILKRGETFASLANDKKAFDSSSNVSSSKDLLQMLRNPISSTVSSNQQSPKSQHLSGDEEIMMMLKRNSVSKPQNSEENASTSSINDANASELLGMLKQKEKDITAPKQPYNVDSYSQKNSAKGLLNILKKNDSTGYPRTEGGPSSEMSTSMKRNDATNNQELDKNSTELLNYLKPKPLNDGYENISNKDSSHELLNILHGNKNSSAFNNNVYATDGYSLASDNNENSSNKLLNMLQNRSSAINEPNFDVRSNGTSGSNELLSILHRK

T3: Dcp2 fragment ND315 (S. cerevisiae) (UniProt P53550)
T3 sequence: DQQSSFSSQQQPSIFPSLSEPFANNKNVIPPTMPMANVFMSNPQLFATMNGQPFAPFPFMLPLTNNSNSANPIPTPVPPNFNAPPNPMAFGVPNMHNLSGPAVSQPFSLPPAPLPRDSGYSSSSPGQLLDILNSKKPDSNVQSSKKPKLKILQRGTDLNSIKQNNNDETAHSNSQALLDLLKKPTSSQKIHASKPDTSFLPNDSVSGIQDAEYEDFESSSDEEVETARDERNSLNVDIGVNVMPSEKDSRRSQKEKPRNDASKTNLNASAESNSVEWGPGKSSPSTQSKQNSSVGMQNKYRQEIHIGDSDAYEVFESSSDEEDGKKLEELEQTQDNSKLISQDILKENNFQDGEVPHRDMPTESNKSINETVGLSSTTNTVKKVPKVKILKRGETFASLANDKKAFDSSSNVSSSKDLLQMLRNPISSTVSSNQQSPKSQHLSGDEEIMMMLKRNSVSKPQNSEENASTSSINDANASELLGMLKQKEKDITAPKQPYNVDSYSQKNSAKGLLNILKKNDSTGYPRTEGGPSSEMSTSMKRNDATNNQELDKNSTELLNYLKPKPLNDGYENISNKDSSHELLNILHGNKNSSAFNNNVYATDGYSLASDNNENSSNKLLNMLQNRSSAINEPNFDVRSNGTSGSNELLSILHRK

B1: Scd6 (protein, UniProt P45978 1-349)
chain: MSQYIGKTISLISVTDNRYVGLLEDIDSEKGTVTLKEVRCFGTEGRKNWGPEEIYPNPTVYNSVKFNGSEVKDLSILDANINDIQPVVPQMMPPASQFPPQQAQSPPQAQAQAHVQTNPQVPKPESNVPAAVAGYGVYTPTSTETATASMNDKSTPQDTNVNSQSRERGKNGENEPKYQRNKNRSSNRPPQSNRNFKVDIPNEDFDFQSNNAKFTKGDSTDVEKEKELESAVHKQDESDEQFYNKKSSFFDTISTSTETNTNMRWQEEKMLNVDTFGQASARPRFHSRGLGRGRGNYRGNRGNRGRGGQRGNYQNRNNYQNDSGAYQNQNDSYSRPANQFSQPPSNVEF

Legend:
Experiment in all cases: two-hybrid; GAL4(DB) fusion and GAL4(AD) fusion cotransformed into the wild-type tester strain GGY1::171; X-Gal colony colour on SSX plates, 30°C; pairs said to be unaffected were also tested in upf1Δ, pat1Δ, scd6Δ, edc3Δ or dcp2-N245 derivatives
[1] = target: T1, Dcp2, wild-type full length (S. cerevisiae)
[2] = target: T2, Dcp2-ND244 (726-amino acid C-terminal fragment) (S. cerevisiae)
[3] = target: T3, Dcp2 fragment ND315 (S. cerevisiae)
[4] = target: T1, Dcp2, wild-type full length (S. cerevisiae); remark: listed apart in the source
[5] = target: T3, Dcp2 fragment ND315 (S. cerevisiae); remark: listed apart in the source

Molecule	binding [1]	binding [2]	binding [3]	binding [4]	binding [5]
Xrn1 (from UniProt P22147 1-1528)	no binding	binds weakly	binds weakly		
B1				binds	binds
